Measurements: PubChem BioAssay AID328 (DTP/NCI, 2004)
The list is a part of this screen's results and no random one: it is rich in T/C values a quarter to a half above the control, in often repeated tests (any T/C) and in doses without a T/C. Other doses and runs of a compound stand elsewhere. T/C: endpoint of the treated group in % of that of the vehicle group. Some doses have a count of surviving animals in place of a T/C: the source files T/C as zero there, which appears to mark a toxic dose or a test without result, not a measured value. Some doses without a T/C left all or most animals alive at the check, yet need not have been tolerated: the source hardly ever lists a survival T/C far under the control, and the zero likely stands for such cases as well. Counts of survivors are from the toxicity check (mostly the fifth day) where no day follows; animals may have died later. Schedules are NCI's codes, read here as Q, the interval in days (D) or hours (H), X, the number of doses. Some structures stand for samples that the source files as different forms (salt, stereo form or complex); doses refer to the form tested. Counts like (3×) count equal records among those shown. For survival time, the PubChem record calls one and a half times the control and up active, and a quarter to a half above the control has no call in these data; cut-offs in other NCI protocols can differ. Some T/C values are followed by the survivors on the day toxicity was checked, most often the fifth; where none is given, no animal had died by that day. Some doses were run more than once; the values are given in rising order.

Test system: BDF1 mice, P388 leukemia ip, median survival T/C
Assay: NCI In Vivo Anticancer Drug Screen. Data for tumor model P388 Leukemia (intraperitoneal) in B6D2F1 (BDF1) mice
Conditions: T/C endpoint: median survival time, higher T/C = longer survival
Outline: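 Antitumour effect was judged in vivo: survival in drug-treated mice, normalised to that of vehicle-dosed controls, gives the reported T/C.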

[1] = dose: 200.0 mg/kg/injection, schedule: Q01DX009 (ip), vehicle: saline with Tween-80
[2] = dose: 25.0 mg/kg/injection, schedule: Q01DX009 (ip), vehicle: saline with Tween-80
[3] = dose: 200.0 mg/kg/injection, schedule: Q04DX003 (ip), vehicle: saline with Tween-80
[4] = dose: 12.5 mg/kg/injection, schedule: Q01DX010 (ip), vehicle: carboxymethylcellulose (CMC)
[5] = dose: 100.0 mg/kg/injection, schedule: Q01DX009 (ip), vehicle: saline with Tween-80
[6] = dose: 400.0 mg/kg/injection, schedule: Q01DX009 (ip), vehicle: saline with Tween-80
[7] = dose: 100.0 mg/kg/injection, schedule: Q04DX003 (ip), vehicle: Klucel (hydroxypropylcellulose) (HPC)
[8] = dose: 400.0 mg/kg/injection, schedule: Q04DX003 (ip), vehicle: Klucel (hydroxypropylcellulose) (HPC)

In the case of Cc1cccc(N=P(c2ccccc2)(c2ccccc2)c2ccccc2)c1, the T/C (dose: 200.0 mg/kg/injection, schedule: Q01DX009 (ip), vehicle: Klucel (hydroxypropylcellulose) (HPC)) is reported as 131 % of control [5 of 6 alive] and the survivor count (dose: 300.0 mg/kg/injection, schedule: Q01DX009 (ip), vehicle: Klucel (hydroxypropylcellulose) (HPC)) is reported as 3 of 6.
With CCN(CC)c1ccc([N+](=O)[O-])c2no[n+]([O-])c12 the survivor count (dose: 140.0 mg/kg/injection, schedule: Q01DX009 (ip), vehicle: saline with Tween-80) was 1 of 7.
With CCCCC(NC(C)=O)C(=O)O (stereo not given) the T/C [1] was 127 % of control.
In the case of CCCC(O)C(C)(C)[N+](=O)[O-] (stereo not given), the survivor count [2] is reported as 4 of 6.
For CCCCCCCCCCCCCC[n+]1ccccc1, the T/C (dose: 0.5 mg/kg/injection, schedule: Q01DX010 (ip), vehicle: saline) was 135 % of control, the survivor count (dose: 1.0 mg/kg/injection, schedule: Q01DX010 (ip), vehicle: saline) was 2 of 6 and the survivor count (dose: 2.0 mg/kg/injection, schedule: Q01DX010 (ip), vehicle: saline) was 0 of 6. For the same compound, the survivor count (dose: 4.0 mg/kg/injection, schedule: Q01DX010 (ip), vehicle: saline) was 0 of 6, the T/C (dose: 8.0 micrograms/kg/injection, schedule: Q01DX009 (ip), vehicle: saline with Tween-80) was 125 % of control and the survivor count (dose: 125.0 micrograms/kg/injection, schedule: Q01DX010 (ip), vehicle: saline) was 4 of 6. For the same compound, the T/C (dose: 250.0 micrograms/kg/injection, schedule: Q01DX009 (ip), vehicle: saline) was 140 % of control, the T/C (dose: 500.0 micrograms/kg/injection, schedule: Q01DX009 (ip), vehicle: saline) was 145 % of control and the survivor count (dose: 500.0 micrograms/kg/injection, schedule: Q01DX010 (ip), vehicle: saline) was 3 of 6. The survivor count (dose: 1000.0 micrograms/kg/injection, schedule: Q01DX009 (ip), vehicle: saline) was 3 of 6.
With COc1cc(/C=C(/C)[N+](=O)[O-])cc(Br)c1OC the survivor count [3] was 5 of 6 and the survivor count (dose: 400.0 mg/kg/injection, schedule: Q04DX003 (ip), vehicle: saline with Tween-80) was 2 of 6.
In the case of CN(C)c1ccc(N=Cc2cc[n+](C)cc2)cc1, the T/C (dose: 25.0 mg/kg/injection, schedule: Q01DX009 (ip), vehicle: saline) is reported as 127 and 127 % of control [5 of 6 alive].
CCCCCCCCCCCCCCCCCC(=O)[O][Hg][c]1ccccc1 was tested, and the survivor count (dose: 20.0 mg/kg/injection, schedule: Q01DX009 (ip), vehicle: other) was 1 of 6, the survivor count (dose: 22.0 mg/kg/injection, schedule: Q01DX001 (ip), vehicle: Klucel (hydroxypropylcellulose) (HPC)) was 3 of 6 and the survivor count (dose: 35.0 mg/kg/injection, schedule: Q04DX003 (ip), vehicle: Klucel (hydroxypropylcellulose) (HPC)) was 1 of 6. The survivor count (dose: 40.0 mg/kg/injection, schedule: Q01DX009 (ip), vehicle: other) was 0 of 6.
In the case of O=C(O)CNC(=O)CCl, the survivor count (dose: 150.0 mg/kg/injection, schedule: Q01DX009 (ip), vehicle: Klucel (hydroxypropylcellulose) (HPC)) is reported as 3 of 6 and the survivor count (dose: 335.0 mg/kg/injection, schedule: Q01DX009 (ip), vehicle: Klucel (hydroxypropylcellulose) (HPC)) is reported as 3 of 6.
C[n+]1c(-c2ccccc2)c2cc(N)ccc2c2ccc(N)cc21 was tested, and the survivor count (dose: 100.0 mg/kg/injection, schedule: Q04DX003 (ip), vehicle: saline with Tween-80) was 0 of 6 and the survivor count [3] was 0 of 6.
With N=C(N)SC1c2cc(Cl)ccc2-c2c(Cl)cc(Cl)cc21 (stereo not given) the survivor count (dose: 3.1 mg/kg/injection, schedule: Q01DX010 (ip), vehicle: carboxymethylcellulose (CMC)) was 6 of 6, the survivor count (dose: 6.2 mg/kg/injection, schedule: Q01DX010 (ip), vehicle: carboxymethylcellulose (CMC)) was 6 of 6 and the T/C [4] was 135 % of control. For the same compound, the survivor count [4] was 6 of 6, the T/C (dose: 25.0 mg/kg/injection, schedule: Q01DX010 (ip), vehicle: carboxymethylcellulose (CMC)) was 145 % of control and the T/C (dose: 50.0 mg/kg/injection, schedule: Q01DX009 (ip), vehicle: Klucel (hydroxypropylcellulose) (HPC)) was 130 % of control. For the same compound, the T/C (dose: 50.0 mg/kg/injection, schedule: Q01DX010 (ip), vehicle: carboxymethylcellulose (CMC)) was 135 % of control and the T/C (dose: 100.0 mg/kg/injection, schedule: Q01DX009 (ip), vehicle: Klucel (hydroxypropylcellulose) (HPC)) was 130 % of control.
For COc1ccc(/C(=N/N)C(C)(C)C)cc1, the survivor count [5] was 5 of 6 and the survivor count [1] was 0 of 6.
In the case of C[C@]12C=CC(=O)C=C1CC[C@@H]1[C@@H]2[C@@H](O)C[C@@]2(C)[C@H]1CC[C@]2(O)C(=O)COC(=O)CCC1CCCC1, the survivor count [1] is reported as 6 of 6 and the survivor count [6] is reported as 5 of 6.
In the case of CC(C)(C)OC(=O)NC(CCCCNC(=O)OCc1ccccc1)C(=O)NC(CCCCNC(=O)OCc1ccccc1)C(=O)NC(CCCCNC(=O)OCc1ccccc1)C(=O)OCc1ccccc1 (stereo not given), the survivor count (dose: 100.0 mg/kg/injection, schedule: Q01DX005 (ip), vehicle: saline with Tween-80) is reported as 5 of 5.
In the case of c1ccc(CCN2CCC(CCc3c[nH]c4ccccc34)CC2)cc1, the T/C (dose: 100.0 mg/kg/injection, schedule: Q01DX010 (ip), vehicle: saline) is reported as 127 % of control and the survivor count (dose: 200.0 mg/kg/injection, schedule: Q01DX010 (ip), vehicle: saline) is reported as 3 of 7.
In the case of CC(=O)Nc1ccc(S(=O)(=O)N(CCO)c2ccccc2)cc1, the survivor count [7] is reported as 6 of 6 and the survivor count [8] is reported as 6 of 6.
For CN(C(N)=O)c1c(O)nc(N)[nH]c1=O, the survivor count (dose: 25.0 mg/kg/injection, schedule: Q01DX009 (ip), vehicle: water) was 6 of 6 and the survivor count (dose: 200.0 mg/kg/injection, schedule: Q01DX009 (ip), vehicle: water) was 1 of 6.
In the case of Cc1cccc(-n2c(CC#N)n[nH]c2=S)c1, the survivor count [5] is reported as 6 of 6.
For [Au].c1ccc(-c2nn[nH]n2)cc1.c1ccc(P(c2ccccc2)c2ccccc2)cc1, the T/C (dose: 3.13 mg/kg/injection, schedule: Q01DX009 (ip), vehicle: saline with Tween-80) was 126 % of control, the T/C (dose: 6.25 mg/kg/injection, schedule: Q01DX009 (ip), vehicle: saline with Tween-80) was 125 % of control and the T/C (dose: 12.5 mg/kg/injection, schedule: Q01DX009 (ip), vehicle: saline with Tween-80) was 126 % of control. For the same compound, the T/C [2] was 131 % of control [5 of 6 alive].
In the case of CCSC(C(O)C(O)C(O)C(O)CO)n1ccc(=O)[nH]c1=O (stereo not given), the survivor count (dose: 100.0 mg/kg/injection, schedule: Q01DX001 (ip), vehicle: saline) is reported as 6 of 6, the survivor count (dose: 200.0 mg/kg/injection, schedule: Q01DX001 (ip), vehicle: saline) is reported as 6 of 6 and the survivor count (dose: 400.0 mg/kg/injection, schedule: Q01DX001 (ip), vehicle: saline) is reported as 6 of 6.
In the case of CC(NCCCSc1ccccc1)C(O)c1ccc(O)cc1 (stereo not given), the T/C [1] is reported as 125 % of control [5 of 6 alive], the survivor count [1] is reported as 0 of 6 (2×) and the survivor count [6] is reported as 0 of 6 (2×).
For O=C1C(N2CCOCC2)=C(N2CC2)C(=O)C(N2CCOCC2)=C1N1CC1, the T/C (dose: 0.75 mg/kg/injection, schedule: Q01DX009 (ip), vehicle: saline) was 147 % of control.
Clc1ccc(C2(C3CCNCC3)CCCO2)cc1 (stereo not given) was tested, and the survivor count [1] was 0 of 6.
With CCOc1ccccc1NC1=C(OC)C(=O)C(Nc2ccccc2OCC)=C(OC)C1=O the survivor count [7] was 6 of 6 and the survivor count [8] was 2 of 6.
Clc1ccc(N=C/C=C\C=C/Nc2ccc(Cl)cc2)cc1 was tested, and the survivor count (dose: 40.0 mg/kg/injection, schedule: Q01DX009 (ip), vehicle: saline with Tween-80) was 7 of 7 and the survivor count (dose: 80.0 mg/kg/injection, schedule: Q01DX009 (ip), vehicle: saline with Tween-80) was 5 of 7.
N=[N+]=CC(=O)OCC(N)C(=O)O (stereo not given) was tested, and the T/C (dose: 3.13 mg/kg/injection, schedule: Q01DX010 (ip), vehicle: saline) was 140 % of control, the T/C (dose: 5.0 mg/kg/injection, schedule: Q01DX010 (ip), vehicle: water) was 140 % of control and the survivor count (dose: 25.0 mg/kg/injection, schedule: Q01DX010 (ip), vehicle: saline) was 6 of 6.
